In article PMC4811778 (eLife, 2016) one finds binding data, which are given here for three molecules.

No constants are given. Whether binding was seen depends on the method and setting. Binding seen in cells or lysates may run through a third protein. Here binding means that the protein was enriched with, or labelled near, the bait; the list need not be complete. Where a sequence is shown, tags or fusion partners need not be part of it.

The target in the experiment is T1, TAP-tagged yeast exosome subunit Rrp46 (Saccharomyces cerevisiae) (UniProt P53256).
T1 sequence: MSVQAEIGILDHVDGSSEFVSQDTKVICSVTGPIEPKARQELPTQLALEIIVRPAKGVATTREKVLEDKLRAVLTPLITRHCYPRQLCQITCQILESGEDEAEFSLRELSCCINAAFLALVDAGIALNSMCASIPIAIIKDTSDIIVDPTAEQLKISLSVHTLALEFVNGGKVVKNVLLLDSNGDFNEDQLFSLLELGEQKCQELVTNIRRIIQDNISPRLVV
In words: affinity purification with mass spectrometry; TAP-tagged Rrp46 immunoprecipitated from yeast with IgG beads, gentle wash buffer (150 mM NaCl), no mono-Q step; crude immunoprecipitate, 740 proteins identified by LC-MS/MS.

B1: exosome subunit Rrp4 (protein, UniProt P38792 1-359)
chain: MSEVITITKRNGAFQNSSNLSYNNTGISDDENDEEDIYMHDVNSASKSESDSQIVTPGELVTDDPIWMRGHGTYFLDNMTYSSVAGTVSRVNRLLSVIPLKGRYAPETGDHVVGRIAEVGNKRWKVDIGGKQHAVLMLGSVNLPGGILRRKSESDELQMRSFLKEGDLLNAEVQSLFQDGSASLHTRSLKYGKLRNGMFCQVPSSLIVRAKNHTHNLPGNITVVLGVNGYIWLRKTSQMDLARDTPSANNSSSIKSTGPTGAVSLNPSITRLEEESSWQIYSDENDPSISNNIRQAICRYANVIKALAFCEIGITQQRIVSAYEASMVYSNVGELIEKNVMESIGSDILTAEKMRGNGN
Turning to B1, the binding entry was “binds”.

B2: exosome catalytic subunit Rrp44 (protein, UniProt Q08162 1-1001)
chain: MSVPAIAPRRKRLADGLSVTQKVFVRSRNGGATKIVREHYLRSDIPCLSRSCTKCPQIVVPDAQNELPKFILSDSPLELSAPIGKHYVVLDTNVVLQAIDLLENPNCFFDVIVPQIVLDEVRNKSYPVYTRLRTLCRDSDDHKRFIVFHNEFSEHTFVERLPNETINDRNDRAIRKTCQWYSEHLKPYDINVVLVTNDRLNREAATKEVESNIITKSLVQYIELLPNADDIRDSIPQMDSFDKDLERDTFSDFTFPEYYSTARVMGGLKNGVLYQGNIQISEYNFLEGSVSLPRFSKPVLIVGQKNLNRAFNGDQVIVELLPQSEWKAPSSIVLDSEHFDVNDNPDIEAGDDDDNNESSSNTTVISDKQRRLLAKDAMIAQRSKKIQPTAKVVYIQRRSWRQYVGQLAPSSVDPQSSSTQNVFVILMDKCLPKVRIRTRRAAELLDKRIVISIDSWPTTHKYPLGHFVRDLGTIESAQAETEALLLEHDVEYRPFSKKVLECLPAEGHDWKAPTKLDDPEAVSKDPLLTKRKDLRDKLICSIDPPGCVDIDDALHAKKLPNGNWEVGVHIADVTHFVKPGTALDAEGAARGTSVYLVDKRIDMLPMLLGTDLCSLKPYVDRFAFSVIWELDDSANIVNVNFMKSVIRSREAFSYEQAQLRIDDKTQNDELTMGMRALLKLSVKLKQKRLEAGALNLASPEVKVHMDSETSDPNEVEIKKLLATNSLVEEFMLLANISVARKIYDAFPQTAMLRRHAAPPSTNFEILNEMLNTRKNMSISLESSKALADSLDRCVDPEDPYFNTLVRIMSTRCMMAAQYFYSGAYSYPDFRHYGLAVDIYTHFTSPIRRYCDVVAHRQLAGAIGYEPLSLTHRDKNKMDMICRNINRKHRNAQFAGRASIEYYVGQVMRNNESTETGYVIKVFNNGIVVLVPKFGVEGLIRLDNLTEDPNSAAFDEVEYKLTFVPTNSDKPRDVYVFDKVEVQVRSVMDPITSKRKAELLLK
As for B2, the binding entry is listed as “binds”.

B3: exosome subunit Rrp42 (protein, UniProt Q12277 1-265)
chain: MSLSVAEKSYLYDSLASTPSIRPDGRLPHQFRPIEIFTDFLPSSNGSSRIIASDGSECIVSIKSKVVDHHVENELLQVDVDIAGQRDDALVVETITSLLNKVLKSGSGVDSSKLQLTKKYSFKIFVDVLVISSHSHPVSLISFAIYSALNSTYLPKLISAFDDLEVEELPTFHDYDMVKLDINPPLVFILAVVGNNMLLDPAANESEVANNGLIISWSNGKITSPIRSVALNDSNVKSFKPHLLKQGLAMVEKYAPDVVRSLENL
In the case of B3, the binding result is “binds”.
